This is one part of the list. These are further read-outs of the screen, such as a control signal, another cell line or another target. No call is given for them. Compounds called inactive in the main read-out are mostly missing here. Potencies come from curve fits of mixed quality, noted in brackets.
Assay: qHTS Assay for Lipid Storage Modulators in Drosophila S3 Cells;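 as to cell number change: cells counted by Cell Tracker Red CMTPX staining in the red channel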
Conditions: BODIPY lipid droplet fluorescence, 18-24 h; for cell number change: measured here: cell count max response, cells fed with added oleic acid
How it was run: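 Laser-scanning cytometry quantifies lipid droplet accumulation (500–530 nm total intensity; droplet/cell object ratio) in oleic acid-fed (400 uM added) Drosophila S3 cells treated with a concentration series. 20 uM Triacsin C defined 100% inhibition.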

[1] = measured here: lipid fluorescence (Fed channel) AC50, cells fed with added oleic acid
[2] = measured here: cell number channel AC50, cells fed with added oleic acid

Row | Compound | cell number change | AC50 [1] | AC50 [2]
1 | Cc1ccnc(NC(=O)CCC(=O)N(CC(=O)NC2CCCCC2)Cc2ccc3c(c2)OCO3)c1 | -15.7% | 0.58 µM [rising, partial curve] | 
2 | Cc1noc(C)c1COC(=O)Cn1c(C)nc2ccccc21 | -29.7% |  | 
3 | COc1ccc(/C=C2\C(=O)ON=C2c2ccccc2)cc1OC | 24% |  | 
4 | Cc1ccc(N2CS(=O)(=O)/C(=C/N(C)C)C2=O)cc1 |  | 20.6 µM [falling, single point] | 
5 | N#Cc1ccc(C(=O)OCC(=O)N2CCCCCC2)cc1 | 4.39% | 11.6 µM [falling, partial curve, poor fit] | 
6 | CCOc1ccc(N2CC(C(=O)OC)CC2=O)cc1 (stereo unspecified) | -25.8% | 0.651 µM [falling, full curve] | 0.651 µM [falling, full curve, poor fit]
7 | CC(=C1C(=O)c2ccccc2C1=O)N1CCN(c2ccc(F)cc2)CC1 |  | 6.51 µM [falling, partial curve] | 0.58 µM [falling, full curve]
8 | CC1CC1C(=O)OCC(=O)NCc1ccccc1Cl (stereo unspecified) |  | 3.66 µM [falling, full curve] | 
9 | CC1C(c2ccccc2)C(C#N)(C#N)C2(C#N)C(=O)NC1(N)C2C (stereo unspecified) | 15.2% | 0.146 µM [falling, full curve, poor fit] | 
10 | NC(=O)C1CCN(C(=O)C2c3ccccc3C(=O)N3CCc4ccccc4C23)CC1 (stereo unspecified) | 10.5% | 16.4 µM [rising, single point] | 
11 | O=C(CCN1C(=O)C2C3C=CC(C3)C2C1=O)N1CCN(c2ccccc2F)CC1 (stereo unspecified) | 19.5% | 5.8 µM [rising, full curve] | 
12 | NC(=O)CCNC(=O)c1ccc(Cl)cc1 | 11.4% | 29.1 µM [falling, partial curve] | 
13 | Cc1ccc(S(=O)(=O)NC(=O)Nc2ccc(N(C)C)cc2)cc1 | -54.3% | 29.1 µM [falling, single point] | 29.1 µM [falling, single point]
14 | Cc1ccc(S(=O)(=O)N(C)C)cc1NC(=O)c1cc(-c2ccco2)nc2ccccc12 | 28.1% | 29.1 µM [rising, single point] | 
15 | CCCCOC(=O)Nc1ccccc1C(=O)OC | -7.43% |  | 
16 | O=c1c2ccccc2nc(/C=C/c2ccc([N+](=O)[O-])o2)n1CCCO | -24% | 2.06 µM [falling, full curve] | 
17 | COc1ccccc1NC(=O)CSc1nc2ccccc2c(=O)n1CC1CCCO1 (stereo unspecified) | -19.7% | 3.55 µM [falling, single point] | 
18 | COC(=O)Cc1c(C)c2ccc(OC(=O)c3ccccc3)cc2oc1=O | 0.295% | 5.8 µM [falling, full curve] | 0.0058 µM [falling, full curve, poor fit]
19 | COc1ccc(C)cc1NC(=O)c1ccc(OC(F)F)cc1 | -11.1% | 9.2 µM [rising, partial curve] | 
20 | Cc1cc(C)cc(NC(=O)C2CCN(S(C)(=O)=O)CC2)c1 | 1.09% |  | 
21 | COc1ccc(C(=O)Nc2ccc(C(=O)Nc3cccc(C)c3)cc2)cc1 | -3.64% | 0.206 µM [rising, full curve] | 
22 | Cc1ccn(CC(=O)NC2CC(C)(C)Cc3c2cnn3-c2ccc(F)cc2)n1 (stereo unspecified) | 24.9% | 29.1 µM [rising, single point] | 

Row | Compound | cell number change | AC50 [1] | AC50 [2]
23 | Cc1cccc(NC(=O)CN(c2ccc(F)cc2)S(C)(=O)=O)c1 | -57.5% | 7.31 µM [falling, partial curve] | 4.61 µM [falling, partial curve]
24 | O=C(Cc1ccc(Cl)cc1)NC1CCCCCC1 |  | 6.51 µM [rising, single point] | 
25 | CCC(=O)OCC(=O)N=c1sccn1Cc1ccc(C)cc1 | -1.08% | 5.8 µM [rising, full curve] | 
26 | O=C(Cc1ccc2c(c1)CCCC2)Nc1ccccc1Cl | -17.2% | 1.3 µM [falling, full curve, poor fit] | 
27 | Cc1cn2c(nc1=O)OC1CC2OC1CO (stereo unspecified) | -11.1% | 0.00461 µM [falling, full curve, poor fit] | 
28 | CCOC(=O)C1CCCN(C(c2ccccn2)c2c(C)[nH]c3ccccc23)C1 (stereo unspecified) | -4.97% | 1.3 µM [falling, full curve] | 
29 | COc1cc(C(C[N+](=O)[O-])c2c(-c3ccccc3)cc3ccccn23)cc(OC)c1OC (stereo unspecified) | 84.7% | 5.8 µM [rising, single point] | 4.11 µM [rising, full curve]
30 | COc1ccccc1NC(=O)C(C)NS(=O)(=O)c1ccccc1 (stereo unspecified) | -7.26% |  | 
31 | COc1ccc(C(=O)c2ccc(Cl)c([N+](=O)[O-])c2)cc1 | -21.9% | 1.16 µM [falling, full curve] | 
32 | O=C(NN1c2ccccc2CCc2ccccc21)c1ccccc1Br | -29% |  | 
33 | Cc1ccc(C2CC(c3cccs3)=NN2C(=O)CSc2nc(=O)n3cc(C)ccc3n2)cc1 (stereo unspecified) | -21.3% |  | 
34 | Cc1cccc(C)c1NC(=O)COC(=O)c1ccc([N+](=O)[O-])o1 |  | 0.00461 µM [rising, full curve, poor fit] | 0.00461 µM [rising, full curve, poor fit]
35 | CC(C)CNC(=O)c1noc2c1CCCC2 | -7.95% | 6.51 µM [falling, single point] | 
36 | CCOC(=O)Cc1csc(NC(=O)c2ccc(N3CCOCC3)cc2[N+](=O)[O-])n1 | 5.83% | 2.91 µM [rising, partial curve] | 6.51 µM [rising, single point]
37 | Cc1ccc(CCNC(=O)c2sc3nc4n(c(=O)c3c2C)CCC4)cc1 | -2.39% | 29.1 µM [falling, single point] | 
38 | COc1ccc(Cl)cc1C(=O)OCC(=O)Nc1cccnc1Cl | -13.1% |  | 
39 | O=C(OCC(=O)N1CCc2ccccc21)c1nc(Cl)ccc1Cl | 34.3% | 18.4 µM [rising, single point] | 
40 | CCOCCOCN(C#N)c1nc(OC)nc(N(C)C)n1 | 12.6% | 7.31 µM [rising, partial curve] | 
41 | NC(=O)C1CC(O)CN1c1nc(CN2CCOCC2)nc2scc(-c3ccccc3)c12 (stereo unspecified) | -3.16% | 0.164 µM [falling, full curve, poor fit] | 
42 | O=C(CCNC(=O)c1ccccc1Cl)Nc1cccc(S(=O)(=O)N2CCCC2)c1 | 8.97% |  | 
43 | CCCc1nnc(NC(=O)C2CCN(C(=O)c3ccco3)CC2)s1 |  |  | 0.00461 µM [rising, full curve, poor fit]
44 | Cc1ncsc1CCOC(=O)c1ccccc1 |  | 0.116 µM [rising, single point] | 0.082 µM [rising, single point]

Row | Compound | cell number change | AC50 [1] | AC50 [2]
45 | CCOC(=O)c1nn(-c2ccc(C)cc2)c(=O)cc1OCC(=O)Nc1cccc(OC)c1 |  |  | 4.61 µM [rising, partial curve]
46 | CCN1C(=O)[C@H]2[C@@H](c3ccc(OC)cc3)N3C(=O)CN(CCOC)C(=O)[C@@]3(C)[C@H]2C1=O | 12% | 29.1 µM [rising, single point] | 
47 | CC(C(=O)NC1=NCCS1)(C(F)(F)F)C(F)(F)F | 17.3% |  | 
48 | COc1ccc(N(CC(=O)NCCOc2ccccc2)S(=O)(=O)c2ccc(C)cc2)cc1 | -1.28% | 0.0082 µM [falling, full curve, poor fit] | 
49 | N#Cc1cc(-c2ccccc2)[nH]c1-c1nccc2ccccc12 | -5.12% | 0.651 µM [falling, single point] | 
50 | Cc1cccc(C)c1N1CCN(S(=O)(=O)N2CCOCC2)CC1 |  |  | 3.66 µM [rising, single point]
51 | CCCC(c1nnnn1Cc1ccc(OC)cc1)N1CCN(c2ccccc2)CC1 (stereo unspecified) | 4.64% | 6.51 µM [rising, single point] | 
52 | CC(C)c1ccc(S(=O)(=O)N2CCN(CC(=O)Nc3ccc4c(c3)OCO4)CC2)cc1 | -16.3% | 0.164 µM [rising, full curve, poor fit] | 
53 | O/N=C(\c1ccccc1)C(O)c1ccccc1 (stereo unspecified) | -21.8% |  | 
54 | CN(C)S(=O)(=O)c1cccc(C(=O)Nc2n[nH]c(C(F)(F)F)n2)c1 | 38.5% | 0.0058 µM [rising, full curve, poor fit] | 29.1 µM [rising, single point]
55 | O=C(NCCC(=O)N1CCN(c2ccc(F)cc2)CC1)c1ccco1 | 17.3% |  | 
56 | COCCn1c(SCC(=O)Nc2cccnc2Cl)nc2ccccc2c1=O | 31.1% |  | 0.00731 µM [rising, full curve, poor fit]
57 | Cc1noc(C)c1-c1ccc2ncnc(NC(C)c3ccco3)c2c1 (stereo unspecified) | -4.2% | 0.517 µM [falling, partial curve] | 0.326 µM [falling, partial curve]
58 | CCN(CC(=O)NC1CCS(=O)(=O)C1)C(=O)/C=C/c1cccs1 (stereo unspecified) | -4.88% |  | 0.731 µM [rising, single point]
59 | O=C(Nc1nncs1)c1cccc(S(=O)(=O)N2CCCC2)c1 | 5.1% |  | 
60 | Cc1ccccc1N1CCN(C(=O)c2cc(C3CC3)nn2-c2ccccc2)CC1 | -14.8% |  | 
61 | O=C(Nc1ccc(Cl)cc1)c1ccc2ncsc2c1 | 12% | 20.6 µM [rising, single point] | 0.00461 µM [rising, full curve, poor fit]
62 | CC(CC(=O)Nc1nc2ccccc2[nH]1)c1ccccc1 (stereo unspecified) | -40.8% | 1.84 µM [rising, partial curve] | 
63 | c1ccc2c(c1)[nH]c1c(N3CCCC3)ncnc12 | -13.4% |  | 
64 | COc1ccc(C(C(=O)NC2CCCCC2)N(C(=O)CCl)c2ccc(Cl)cc2)cc1 (stereo unspecified) | 3.84% | 16.4 µM [falling, partial curve, poor fit] | 

Arranged by count of non-hydrogen atoms (rising): 3 of the compounds above.
Row | Compound | cell number change | AC50 [1] | AC50 [2]
44 | Cc1ncsc1CCOC(=O)c1ccccc1 |  | 0.116 µM [rising, single point] | 0.082 µM [rising, single point]
55 | O=C(NCCC(=O)N1CCN(c2ccc(F)cc2)CC1)c1ccco1 | 17.3% |  | 
10 | NC(=O)C1CCN(C(=O)C2c3ccccc3C(=O)N3CCc4ccccc4C23)CC1 (stereo unspecified) | 10.5% | 16.4 µM [rising, single point] | 

Reference: PubChem BioAssay AID2685 (National Center for Advancing Translational Sciences (NCATS), 2010)
